Literature values as cited in patent US20260364145A1, “MODIFIED CAVEOLIN-1 PEPTIDE FORMULATIONS AND METHODS OF MANUFACTURING AND USE THEREOF” (REIN THERAPEUTICS, INC., priority 2023, published 2026).
Part of at least one peptide drawing is inferred or uncertain, most often the ends. Residues, ends and D or L forms follow the SMILES beside them.

Test system: fibrosis
Details: both in vitro and in vivo; Marudamuthu et al. 2019; cited from earlier work

CC(C)[C@H](NC(=O)[C@@H](NC(=O)[C@H](Cc1ccccc1)NC(=O)[C@@H](NC(=O)[C@@H](NC(=O)[C@@H](N)Cc1ccccc1)[C@@H](C)O)[C@@H](C)O)[C@@H](C)O)C(=O)N[C@H](C(=O)O)[C@@H](C)O [CSP-7, FTTFTVT] (H-FTTFTVT-OH)
reduction of fibrosis: sufficiently effective in promoting the reduction of fibrosis both in vitro and in vivo
